These are yes or no findings as the source states them, for the method shown.
Columns and labels:
[1] = target: GST-PDRG1 (rat) (UniProt Q642A0); experiment: pull-down; Glutathione-Sepharose loaded with GST-PDRG1 or truncated forms and washed; incubated 1 hour at 4°C with recombinant MATα2 or MATβ alone (purified, 100 μg; extracts also named in the methods) plus excess GST extract; blots with anti-MATα2 and anti-MATβ; both purified
[2] = target: GST-PDRG1 (rat) (UniProt Q642A0); experiment: pull-down; Glutathione-Sepharose loaded with GST-PDRG1 and washed; incubated 1 hour at 4°C with the pre-formed hetero-oligomer MAT II (MATα2 + MATβ, purified, 100 μg) plus excess GST extract; blots with anti-MATα2 and anti-MATβ; both purified

By UniProt entry, the sequences of proteins in these tests, tags left out. Where a name states a change or a piece, a line headed by the entry shows the natural chain unless it says otherwise. Chains listed by the source or under a name are the forms on record and can include a tag or linker.
GST-PDRG1 (Q642A0, form named): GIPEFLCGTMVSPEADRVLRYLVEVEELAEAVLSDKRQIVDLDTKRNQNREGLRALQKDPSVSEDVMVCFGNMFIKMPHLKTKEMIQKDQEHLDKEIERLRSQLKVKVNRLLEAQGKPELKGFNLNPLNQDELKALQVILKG

binding [1]: no binding
binding [2]: no binding
B1: recombinant human methionine adenosyltransferase regulatory β-subunit (MATβ) (protein, UniProt Q9NZL9 1-334)
chain: MVGREKELSIHFVPGSCRLVEEEVNIPNRRVLVTGATGLLGRAVHKEFQQNNWHAVGCGFRRARPKFEQVNLLDSNAVHHIIHDFQPHVIVHCAAERRPDVVENQPDAASQLNVDASGNLAKEAAAVGAFLIYISSDYVFDGTNPPYREEDIPAPLNLYGKTKLDGEKAVLENNLGAAVLRIPILYGEVEKLEESAVTVMFDKVQFSNKSANMDHWQQRFPTHVKDVATVCRQLAEKRMLDPSIKGTFHWSGNEQMTKYEMACAIADAFNLPSSHLRPITDSPVLGAQRPRNAQLDCSKLETLGIGQRTPFRIGIKESLWPFLIDKRWRQTVFH
